Reference: paper PMC2860243
No constants are given. Whether binding was seen depends on the method and setting. Binding seen in cells or lysates may run through a third protein. Some results given as binding are weak or reduced against the parent protein; the word gives no strength. For some of these results: Where a sequence is shown, tags or fusion partners need not be part of it.

The chains behind the UniProt entries cited, without tags or fusion partners.
UniProt Q9R190: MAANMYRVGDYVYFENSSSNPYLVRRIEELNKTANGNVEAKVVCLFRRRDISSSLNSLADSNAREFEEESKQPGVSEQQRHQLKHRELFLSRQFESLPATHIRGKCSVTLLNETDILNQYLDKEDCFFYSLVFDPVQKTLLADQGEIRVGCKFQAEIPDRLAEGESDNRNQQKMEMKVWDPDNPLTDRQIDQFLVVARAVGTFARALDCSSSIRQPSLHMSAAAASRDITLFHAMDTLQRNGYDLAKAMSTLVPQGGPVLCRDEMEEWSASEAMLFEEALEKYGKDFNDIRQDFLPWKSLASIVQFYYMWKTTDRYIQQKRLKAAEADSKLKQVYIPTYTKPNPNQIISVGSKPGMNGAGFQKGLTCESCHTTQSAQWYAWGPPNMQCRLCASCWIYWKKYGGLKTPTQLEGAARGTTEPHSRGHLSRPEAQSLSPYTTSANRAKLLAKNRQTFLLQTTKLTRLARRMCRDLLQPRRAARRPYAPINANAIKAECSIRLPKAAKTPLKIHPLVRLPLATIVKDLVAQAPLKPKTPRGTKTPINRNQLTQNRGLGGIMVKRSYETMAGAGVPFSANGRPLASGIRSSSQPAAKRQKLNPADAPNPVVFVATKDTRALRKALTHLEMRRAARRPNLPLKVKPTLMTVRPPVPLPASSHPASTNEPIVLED
UniProt P20263: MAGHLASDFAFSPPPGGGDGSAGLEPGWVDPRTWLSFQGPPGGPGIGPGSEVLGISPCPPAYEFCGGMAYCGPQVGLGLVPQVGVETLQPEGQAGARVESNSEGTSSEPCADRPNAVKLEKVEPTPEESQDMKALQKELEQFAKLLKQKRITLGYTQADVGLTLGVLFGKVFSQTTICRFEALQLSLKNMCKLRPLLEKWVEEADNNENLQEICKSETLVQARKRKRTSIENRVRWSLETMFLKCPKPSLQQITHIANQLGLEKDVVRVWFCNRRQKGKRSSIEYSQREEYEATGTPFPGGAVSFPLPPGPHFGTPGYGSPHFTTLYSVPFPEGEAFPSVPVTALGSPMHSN
UniProt Q8BX22: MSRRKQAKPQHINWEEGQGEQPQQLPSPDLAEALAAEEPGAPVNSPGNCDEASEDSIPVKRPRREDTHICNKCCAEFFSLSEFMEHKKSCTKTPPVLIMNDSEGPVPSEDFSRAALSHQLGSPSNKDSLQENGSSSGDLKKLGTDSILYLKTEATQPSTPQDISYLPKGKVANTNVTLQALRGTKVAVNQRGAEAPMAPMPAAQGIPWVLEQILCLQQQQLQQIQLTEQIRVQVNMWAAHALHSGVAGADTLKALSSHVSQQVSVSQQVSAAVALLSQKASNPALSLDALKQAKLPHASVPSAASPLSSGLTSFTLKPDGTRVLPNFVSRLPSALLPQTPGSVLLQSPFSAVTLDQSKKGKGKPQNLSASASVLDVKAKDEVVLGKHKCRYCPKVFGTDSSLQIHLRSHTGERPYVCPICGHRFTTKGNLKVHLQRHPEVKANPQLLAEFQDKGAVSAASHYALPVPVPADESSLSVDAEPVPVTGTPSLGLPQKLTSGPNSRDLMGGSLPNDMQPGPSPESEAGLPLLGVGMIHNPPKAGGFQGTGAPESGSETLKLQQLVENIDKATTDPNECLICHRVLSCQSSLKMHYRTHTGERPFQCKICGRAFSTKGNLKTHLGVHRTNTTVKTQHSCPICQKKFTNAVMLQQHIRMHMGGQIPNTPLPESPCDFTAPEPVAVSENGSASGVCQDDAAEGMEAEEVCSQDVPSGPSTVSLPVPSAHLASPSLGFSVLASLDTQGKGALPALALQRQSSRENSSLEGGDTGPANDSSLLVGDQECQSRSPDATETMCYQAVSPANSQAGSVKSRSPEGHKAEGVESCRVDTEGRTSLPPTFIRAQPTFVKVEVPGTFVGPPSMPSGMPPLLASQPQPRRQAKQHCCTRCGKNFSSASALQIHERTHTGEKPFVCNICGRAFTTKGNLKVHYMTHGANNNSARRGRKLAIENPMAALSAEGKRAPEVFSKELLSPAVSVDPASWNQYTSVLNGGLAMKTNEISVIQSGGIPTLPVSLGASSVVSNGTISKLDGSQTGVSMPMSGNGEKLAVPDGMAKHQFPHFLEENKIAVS
UniProt Q6PDQ2: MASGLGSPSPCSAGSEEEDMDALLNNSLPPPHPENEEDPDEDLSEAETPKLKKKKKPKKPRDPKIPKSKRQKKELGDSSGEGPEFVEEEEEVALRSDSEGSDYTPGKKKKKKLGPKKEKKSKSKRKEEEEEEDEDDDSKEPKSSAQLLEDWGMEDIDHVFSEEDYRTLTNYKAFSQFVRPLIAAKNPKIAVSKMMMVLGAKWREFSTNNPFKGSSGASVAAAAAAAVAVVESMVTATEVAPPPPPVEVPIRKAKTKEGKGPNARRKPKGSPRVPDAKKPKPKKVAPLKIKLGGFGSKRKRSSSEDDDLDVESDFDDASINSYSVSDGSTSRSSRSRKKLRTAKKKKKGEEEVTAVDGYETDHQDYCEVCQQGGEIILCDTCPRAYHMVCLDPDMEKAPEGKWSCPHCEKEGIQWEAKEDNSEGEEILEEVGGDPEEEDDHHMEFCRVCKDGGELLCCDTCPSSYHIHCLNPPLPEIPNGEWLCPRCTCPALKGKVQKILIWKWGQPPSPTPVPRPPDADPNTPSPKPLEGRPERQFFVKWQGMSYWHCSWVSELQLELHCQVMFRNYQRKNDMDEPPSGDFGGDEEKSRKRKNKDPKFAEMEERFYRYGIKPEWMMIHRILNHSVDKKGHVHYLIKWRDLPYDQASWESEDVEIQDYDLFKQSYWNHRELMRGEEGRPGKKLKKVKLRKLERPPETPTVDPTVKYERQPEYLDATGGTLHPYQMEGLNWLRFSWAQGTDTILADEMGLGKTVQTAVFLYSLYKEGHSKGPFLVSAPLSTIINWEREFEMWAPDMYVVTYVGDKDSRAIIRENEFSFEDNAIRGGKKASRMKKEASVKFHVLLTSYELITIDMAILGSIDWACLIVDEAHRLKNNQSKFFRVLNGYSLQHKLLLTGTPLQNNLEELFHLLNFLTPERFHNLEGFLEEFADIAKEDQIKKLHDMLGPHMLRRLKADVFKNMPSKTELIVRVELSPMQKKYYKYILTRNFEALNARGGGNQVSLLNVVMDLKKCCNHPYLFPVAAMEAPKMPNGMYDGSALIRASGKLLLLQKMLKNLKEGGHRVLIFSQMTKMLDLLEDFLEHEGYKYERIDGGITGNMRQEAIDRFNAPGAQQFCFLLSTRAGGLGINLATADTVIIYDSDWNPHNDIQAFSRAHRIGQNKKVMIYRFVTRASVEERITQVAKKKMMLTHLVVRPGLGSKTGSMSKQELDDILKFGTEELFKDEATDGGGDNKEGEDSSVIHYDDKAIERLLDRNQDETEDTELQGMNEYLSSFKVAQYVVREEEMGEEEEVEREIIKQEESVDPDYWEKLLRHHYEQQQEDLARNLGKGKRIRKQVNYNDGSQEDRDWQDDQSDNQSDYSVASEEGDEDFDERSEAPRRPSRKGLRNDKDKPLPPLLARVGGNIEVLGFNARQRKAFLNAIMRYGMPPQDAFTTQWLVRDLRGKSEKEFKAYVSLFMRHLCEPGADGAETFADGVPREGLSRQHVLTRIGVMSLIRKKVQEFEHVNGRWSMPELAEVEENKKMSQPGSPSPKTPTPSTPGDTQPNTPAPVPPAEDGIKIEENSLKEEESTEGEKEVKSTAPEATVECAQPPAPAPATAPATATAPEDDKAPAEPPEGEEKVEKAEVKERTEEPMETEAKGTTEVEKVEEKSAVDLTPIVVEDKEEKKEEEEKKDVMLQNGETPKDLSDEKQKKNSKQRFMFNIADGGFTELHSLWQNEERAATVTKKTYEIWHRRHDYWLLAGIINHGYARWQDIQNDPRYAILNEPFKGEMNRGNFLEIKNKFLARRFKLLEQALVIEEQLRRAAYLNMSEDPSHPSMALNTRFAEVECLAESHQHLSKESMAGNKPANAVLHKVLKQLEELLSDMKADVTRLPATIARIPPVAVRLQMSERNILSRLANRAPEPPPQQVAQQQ
UniProt Q8K4B0: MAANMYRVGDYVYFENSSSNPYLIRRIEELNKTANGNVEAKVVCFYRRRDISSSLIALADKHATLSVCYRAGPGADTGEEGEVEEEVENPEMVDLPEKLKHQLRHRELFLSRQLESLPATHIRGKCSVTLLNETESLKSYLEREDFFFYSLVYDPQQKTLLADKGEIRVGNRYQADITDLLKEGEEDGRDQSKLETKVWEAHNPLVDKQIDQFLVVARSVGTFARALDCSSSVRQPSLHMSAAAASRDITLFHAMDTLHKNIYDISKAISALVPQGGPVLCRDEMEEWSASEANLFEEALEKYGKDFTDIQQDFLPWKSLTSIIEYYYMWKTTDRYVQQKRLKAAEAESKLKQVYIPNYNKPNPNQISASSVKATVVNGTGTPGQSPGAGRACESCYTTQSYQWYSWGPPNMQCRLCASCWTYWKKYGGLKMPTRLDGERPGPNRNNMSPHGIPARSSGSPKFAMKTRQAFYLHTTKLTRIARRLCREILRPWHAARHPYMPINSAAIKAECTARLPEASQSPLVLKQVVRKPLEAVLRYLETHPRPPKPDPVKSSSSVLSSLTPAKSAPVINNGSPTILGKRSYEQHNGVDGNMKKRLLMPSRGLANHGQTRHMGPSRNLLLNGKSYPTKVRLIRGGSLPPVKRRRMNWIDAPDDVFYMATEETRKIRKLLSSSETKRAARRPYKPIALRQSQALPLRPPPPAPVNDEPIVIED

Key:
GST-Esrrb (mouse) = target: T1, GST-Esrrb (mouse) (UniProt Q61539); test: pull-down; GST fusion on glutathione-sepharose beads, equilibrated in C-100*, incubated with ESC nuclear extract (46C) for 2 hr at 4°C with Benzonase; western blot; only the target purified
T1 sequence: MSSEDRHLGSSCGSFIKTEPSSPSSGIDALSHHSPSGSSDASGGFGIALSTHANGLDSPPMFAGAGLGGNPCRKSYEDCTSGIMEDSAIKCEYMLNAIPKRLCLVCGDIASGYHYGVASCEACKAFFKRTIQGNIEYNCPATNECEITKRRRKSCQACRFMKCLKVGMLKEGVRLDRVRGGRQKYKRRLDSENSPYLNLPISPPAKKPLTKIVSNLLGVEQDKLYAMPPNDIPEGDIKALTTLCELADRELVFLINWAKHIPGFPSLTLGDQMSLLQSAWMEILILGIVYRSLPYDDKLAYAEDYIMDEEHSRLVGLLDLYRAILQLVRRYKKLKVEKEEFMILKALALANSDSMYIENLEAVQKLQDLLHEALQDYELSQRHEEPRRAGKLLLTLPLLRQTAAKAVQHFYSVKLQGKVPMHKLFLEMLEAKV

[1] = target: Mta2 (mouse (endogenous in mouse ESCs)) (UniProt Q9R190); test: co-IP; antibody beads (20 μl) with 200 μl ESC nuclear extract, C-100* washes, 4°C, Benzonase where indicated; western blot
GST-Dax1 (mouse) = target: T2, GST-Dax1 (mouse) (UniProt Q61066); test: pull-down; GST fusion on glutathione-sepharose beads, equilibrated in C-100*, incubated with ESC nuclear extract (46C) for 2 hr at 4°C with Benzonase; western blot; only the target purified
T2 sequence: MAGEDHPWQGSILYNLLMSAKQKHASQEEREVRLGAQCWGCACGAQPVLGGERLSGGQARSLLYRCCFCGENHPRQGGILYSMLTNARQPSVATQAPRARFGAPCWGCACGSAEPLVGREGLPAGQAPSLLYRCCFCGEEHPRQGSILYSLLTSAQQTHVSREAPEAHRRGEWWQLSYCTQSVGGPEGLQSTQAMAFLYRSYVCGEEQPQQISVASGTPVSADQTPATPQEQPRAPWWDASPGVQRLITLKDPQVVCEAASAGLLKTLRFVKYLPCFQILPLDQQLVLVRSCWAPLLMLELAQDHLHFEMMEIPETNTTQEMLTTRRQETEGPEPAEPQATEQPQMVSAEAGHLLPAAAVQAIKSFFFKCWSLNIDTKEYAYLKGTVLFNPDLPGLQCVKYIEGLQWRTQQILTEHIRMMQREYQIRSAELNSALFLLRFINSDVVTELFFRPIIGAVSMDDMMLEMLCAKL

[2] = target: Oct4 (Pou5f1) (mouse (endogenous in 46C ESCs)) (UniProt P20263); test: co-IP; antibody beads (20 μl) with 200 μl ESC nuclear extract, C-100* washes, 4°C, Benzonase where indicated; western blot
F-Nac1 (mouse) = target: T3, F-Nac1 (mouse) (UniProt Q7TSZ8); test: as above
T3 sequence: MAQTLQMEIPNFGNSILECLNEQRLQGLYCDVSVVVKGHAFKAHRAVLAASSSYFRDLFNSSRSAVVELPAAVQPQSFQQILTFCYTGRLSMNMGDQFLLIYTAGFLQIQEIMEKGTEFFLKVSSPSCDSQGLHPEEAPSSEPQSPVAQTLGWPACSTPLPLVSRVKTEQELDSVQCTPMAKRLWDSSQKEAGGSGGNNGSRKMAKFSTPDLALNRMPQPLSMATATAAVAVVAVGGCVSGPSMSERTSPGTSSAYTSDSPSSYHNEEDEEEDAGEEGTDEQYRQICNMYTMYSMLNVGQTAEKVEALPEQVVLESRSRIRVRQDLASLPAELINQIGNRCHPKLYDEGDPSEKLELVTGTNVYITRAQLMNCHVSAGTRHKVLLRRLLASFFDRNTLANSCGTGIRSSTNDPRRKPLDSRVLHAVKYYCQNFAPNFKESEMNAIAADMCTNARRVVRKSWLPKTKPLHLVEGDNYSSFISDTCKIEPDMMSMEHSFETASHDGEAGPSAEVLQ

[3] = target: Sall4 (mouse (endogenous in mouse ESCs)) (UniProt Q8BX22); test: as above

For Ep400 (from UniProt Q8CHI8 1-3072), the binding (GST-Esrrb (mouse)) was “binds”.

In the case of “Mi2β (Chd4) (from UniProt Q6PDQ2 1-1915)”, the binding [1] is reported as “binds”.

With Mta1 (from UniProt Q8K4B0 1-715) the binding [1] was “binds”.

With Sall4 (from UniProt Q8BX22 1-1067) the binding (GST-Esrrb (mouse)) was “binds”, the binding (GST-Dax1 (mouse)) was “binds” and the binding [2] was “binds”. The binding (F-Nac1 (mouse)) was “binds”.

B1: Sall1 (protein, UniProt Q9ER74 1-1322)
chain: MSRRKQAKPQHFQSDPEVASLPRRDGDTEKGQPSRPTKSKDAHVCGRCCAEFFELSDLLLHKKSCTKNQLVLIVNESPASPAKTFPPGPSLNDPDDQMKDAANKADQEDCSDLSEPKGLDREESMEVEVPVATTTTTTTGGSGGSGGSTLSGVTNITTPSCHSGCSSGTSAITTSLPQLGDLTTLGNFSVINSNVIIENLQSTKVAVAQFSQEARCGGASGGKLLISTLMEQLLALQQQQIHQLQLIEQIRHQILLLASQSADLPAAPSIPSQGTLRTSANPLTTLSSHLSQQLAVAAGLAQSLASQSANISGVKQLPHVQLPQSSSGTSIVPPSGGTSPNMSIVTAAVPTPSSEKVASNAGASHVSSPAVSASSSPAFAISSLLSPESNPLLPQPTPANAVFPTPLPNIATTAEDLNSLSALAQQRKSKPPNVTAFEAKSTSDEAFFKHKCRFCAKVFGSDSALQIHLRSHTGERPFKCNICGNRFSTKGNLKVHFQRHKEKYPHIQMNPYPVPEHLDNVPTSTGIPYGMSIPSEKPVTSWLDTKPVLPTLTTSVGLPLPPTLPSLTPFIKTEEPAPIPISHSAASPQGSVKSDSGAPDLATRNPSGVPEEVEGSAVPPFGGKGEESNMASSAVPTAGNSTLNSPVADGGPGGTTFTNPLLPLMSEQFKAKFPFGGLLDSAQASETSKLQQLVENIDKKATDPNECIICHRVLSCQSALKMHYRTHTGERPFKCKICGRAFTTKGNLKTHYSVHRAMPPLRVQHSCPICQKKFTNAVVLQQHIRMHMGGQIPNTPVPDNYPESMESDTGSFDEKNFDDLDNFSDENMEECPEGSIPDTPKSADASQDSLSSSPLPLEMSSIAALENQMKMINAGLAEQLQASLKSVENGSMEGDVLTNDSSSVGGDMESQSAGSPAISESTSSMQALSPSNSTQEFHKSPGMEEKPQRVGPGEFANGLSPTPVNGGALDLTSSHAEKIIKEDSLGILFPFRDRGKFKNTACDICGKTFACQSALDIHYRSHTKERPFICTVCNRGFSTKGNLKQHMLTHQMRDLPSQLFEPSSNLGPNQNSAVIPANSLSSLIKTEVNGFVHVSPQDSKDAPTSHVPQGPLSSSATSPVLLPALPRRTPKQHYCNTCGKTFSSSSALQIHERTHTGEKPFACTICGRAFTTKGNLKVHMGTHMWNSTPARRGRRLSVDGPMTFLGGNPVKFPEMFQKDLAARSGSGDPSSFWNQYTAALSNGLAMKANEISVIQNGGIPPIPGSLGSGSSPISGLTGNVEKLGNSEPSAPLAGLEKMASSENGTNFRFTRFVEDSKEIVTS
With B1 the binding (GST-Dax1 (mouse)) was “binds”, the binding [2] was “binds” and the binding [3] was “binds”.

B2: V5-tagged Zfp143 (protein, UniProt O70230 1-638)
chain: MLLAQINRDSQGMTEFPGGGMEAQHVTLCLTEAVTVADGDNLENMEGVSLQAVTLADGSTAYIQHNSKDGRLIDGQVIQLEDGSAAYVQHVPIPKSTGDSLRLEDGQAVQLEDGTTAFIHHTSKDSYDQSSLQAVQLEDGTTAYIHHAVQVPQSDTILAIQADGTVAGLHTGDATIDPDTISALEQYAAKVSIDGSDGVTSTGMIGENEQEKKMQIVLQGHATRVTPKSQQSGEKAFRCKYDGCGKLYTTAHHLKVHERSHTGDRPYQCEHSGCGKAFATGYGLKSHFRTHTGEKPYRCSEDNCTKSFKTSGDLQKHIRTHTGERPFKCPIEGCGRSFTTSNIRKVHIRTHTGERPYYCTEPGCGRAFASATNYKNHVRIHTGEKPYVCTVPGCDKRFTEYSSLYKHHVVHTHSKPYNCNHCGKTYKQISTLAMHKRTAHNDTEPIEEEQEAFFEPPPGQGDDVLKGSQITYVTGVDGEDIVSTQVATVTQSGLSQQVTLISQDGTQHVNISQADMQAIGNTITMVTQDGTPITVPTHDAVISSAGTHSVAMVTAEGTEGQQVAIVAQDLAAFHTASSEMGHQQHSHHLVTTETRPLTLVATSNGTQIAVQLGEQPSLEEAIRIASRIQQGETPGLDD
In the case of B2, the binding [3] is reported as “binds”.

B3: V5-Dax1 (protein, UniProt Q61066 1-472)
chain: MAGEDHPWQGSILYNLLMSAKQKHASQEEREVRLGAQCWGCACGAQPVLGGERLSGGQARSLLYRCCFCGENHPRQGGILYSMLTNARQPSVATQAPRARFGAPCWGCACGSAEPLVGREGLPAGQAPSLLYRCCFCGEEHPRQGSILYSLLTSAQQTHVSREAPEAHRRGEWWQLSYCTQSVGGPEGLQSTQAMAFLYRSYVCGEEQPQQISVASGTPVSADQTPATPQEQPRAPWWDASPGVQRLITLKDPQVVCEAASAGLLKTLRFVKYLPCFQILPLDQQLVLVRSCWAPLLMLELAQDHLHFEMMEIPETNTTQEMLTTRRQETEGPEPAEPQATEQPQMVSAEAGHLLPAAAVQAIKSFFFKCWSLNIDTKEYAYLKGTVLFNPDLPGLQCVKYIEGLQWRTQQILTEHIRMMQREYQIRSAELNSALFLLRFINSDVVTELFFRPIIGAVSMDDMMLEMLCAKL
In the case of B3, the binding (GST-Esrrb (mouse)) is reported as “binds”.

B4: FLAG-tagged Tcfcp2l1 (F-Tcfcp2l1) (protein, UniProt Q3UNW5 1-479)
chain: MLFWHTQPEHYNQHNSGSYLRDVLALPIFKQEEPQLSPENGARLPPLQYVLCAATSPAVKLHEETLTYLNQGQSYEIRLLENRKLGDFQDLNTKYVKSIIRVVFHDRRLQYTEYQQLEGWRWSRPGDRILDIDIPLSVGILDPRASPTQLNAVEFLWDPSKRASAFIQVHCISTEFTPRKHGGEKGVPFRVQIDTFKQNESGDYSEHLHSASCQIKVFKPKGADRKQKTDREKMEKRTAQEKEKYQPSYETTILTECSPWPDVPYQANNTPSPSYNGSPNSFGLREGNSSPNHPVEPLPLGSDHLLPSASIQDAQQWLHRNRFSQFCWLFASFSGADLLKMSRDDLVQVCGPADGIRLFNAIKGRNVRPKMTIYVCQELEQNQLPLPQKQDDSGDNSLCVYHAIFLEELTTLELTEKIASLYSIPPQHIHRVYRQGPAGIHVVVSNEMVQNFQDESCFILSTLKAESNDGYHIILKCGL
For B4, the binding (GST-Esrrb (mouse)) was “binds”.
